Test results from the supplement of paper PMC11098740.
The other results are listed elsewhere or left out. Repeats are few or missing, and single values can be far off.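 The assay uses a mixed pool of 41 HAP1 clones in which 61 cancer-associated proteins bear intron-inserted fluorescent tags, and clones are distinguished by image pattern. Results are compared against DMSO-treated control wells, and the BRD4 degrader dBET6 is the positive control.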

Protein sequences, listed by entry. Tags and fused reporters are not part of them.
UniProt O14980, whole entry: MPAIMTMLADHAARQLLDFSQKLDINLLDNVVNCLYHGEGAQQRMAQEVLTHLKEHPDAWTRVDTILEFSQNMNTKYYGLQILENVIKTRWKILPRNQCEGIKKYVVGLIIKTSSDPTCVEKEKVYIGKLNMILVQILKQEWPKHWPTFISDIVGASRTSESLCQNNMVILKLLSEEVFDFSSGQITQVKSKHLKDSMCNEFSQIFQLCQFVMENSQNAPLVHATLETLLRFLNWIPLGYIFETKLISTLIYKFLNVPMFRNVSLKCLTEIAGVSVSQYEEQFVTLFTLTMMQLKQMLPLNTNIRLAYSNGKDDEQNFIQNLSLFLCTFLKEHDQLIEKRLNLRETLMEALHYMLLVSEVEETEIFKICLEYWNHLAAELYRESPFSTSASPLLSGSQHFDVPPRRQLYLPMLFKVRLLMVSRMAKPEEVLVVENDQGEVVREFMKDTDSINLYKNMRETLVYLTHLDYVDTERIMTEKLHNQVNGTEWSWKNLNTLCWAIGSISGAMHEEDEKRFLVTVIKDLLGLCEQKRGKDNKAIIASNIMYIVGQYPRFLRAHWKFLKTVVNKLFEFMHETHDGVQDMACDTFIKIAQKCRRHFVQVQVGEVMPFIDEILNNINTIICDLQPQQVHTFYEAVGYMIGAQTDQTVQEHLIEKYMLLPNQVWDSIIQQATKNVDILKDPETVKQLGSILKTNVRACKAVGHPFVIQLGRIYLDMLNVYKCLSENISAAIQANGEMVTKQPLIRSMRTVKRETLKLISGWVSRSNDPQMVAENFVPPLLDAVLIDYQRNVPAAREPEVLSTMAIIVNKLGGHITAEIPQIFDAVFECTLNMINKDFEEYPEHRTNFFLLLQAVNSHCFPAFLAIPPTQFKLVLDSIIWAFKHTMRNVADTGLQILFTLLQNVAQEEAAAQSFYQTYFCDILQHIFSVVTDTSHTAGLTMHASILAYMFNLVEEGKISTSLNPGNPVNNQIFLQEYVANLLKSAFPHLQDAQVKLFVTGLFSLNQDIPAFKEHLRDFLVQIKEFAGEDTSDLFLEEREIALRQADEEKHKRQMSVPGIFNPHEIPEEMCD

How the values were obtained:
[1] = biological target: XPO1 (intron 15 mScarlet tag, HAP1) (UniProt O14980); assay: XPO1 fluorescence intensity change vs DMSO (log2 fold change); higher = more XPO1 protein; conditions: 6 h
[2] = biological target: BRD4 (intron 10 mScarlet tag, HAP1) (UniProt O60885); assay: BRD4 median nuclear fluorescence intensity change vs DMSO (log2 fold change); higher = more BRD4 protein; conditions: 6 h

Row | Structure (SMILES) | XPO1 fluorescence intensity change (log2) [1] | BRD4 median nuclear fluorescence intensity change (log2) [2]
1 | CN1CC(C(=O)OCC(=O)c2c(-c3ccccc3)[nH]c3ccccc23)CC1=O (configuration not stated) (10 µM) | -0.0511 | 0.00326
2 | Oc1c(C(Nc2cccc(Cl)c2)c2ccccn2)ccc2cccnc12 (configuration not stated) (10 µM) | 0.095 | 0.0913
3 | Cc1occc1C(=O)Nc1nc2ccc(S(C)(=O)=O)cc2s1 (10 µM) | 0.00301 | -0.0753
4 | CC(Sc1ncnc2sccc12)C(=O)NC(=O)NCc1ccccc1 (configuration not stated) (10 µM) | -0.308 | -0.121
5 | CCOC(=O)NCC(=O)NCCc1ccc(C(C)(C)C)cc1 (10 µM) | -0.136 | 0.0906
6 | Cc1ccccc1CC(=O)Nc1nc2c(C(F)(F)F)cccc2s1 (10 µM) | -0.0969 | -0.0308
7 | COc1ccc(Cl)cc1C(=O)N1CCN(c2ccccc2F)CC1 (10 µM) | -0.0343 | 0.0559
8 | CCCCCCC/C=C/C=C(\C)[C@H]1CC(=O)NC[C@H](O)[C@H](C)C(=O)NCC/C=C/C=C/C=C/C(=O)O1 (16 µM) | 0.101 | -0.0312
9 | Cc1ccc(Cl)cc1N1CCN(C(=O)NCc2ccco2)CC1 (10 µM) | 0.0505 | 0.0513
10 | CN(C)CC#Cc1ccc(OCCCc2sc(N3CCc4cccc(C(=O)Nc5nc6ccccc6s5)c4C3)nc2C(=O)O)c(F)c1 (10 µM) | -0.0281 | -0.06
11 | Cc1ccccc1Nc1nc(N)nc(CN(C)Cc2c(F)cccc2Cl)n1 (10 µM) | -0.0316 | 0.0199
12 | Oc1c(C(c2ccncc2)N2CCCC2)ccc2cccnc12 (configuration not stated) (10 µM) | 0.159 | 0.0569
13 | N#CC(C#N)=C1C=CC=CN1/C(=C/c1ccccc1)C(=O)c1cccs1 (10 µM) | -0.0224 | 0.0206
14 | Cc1nn(-c2ccccc2)c2c1CC(C#N)(c1ccccn1)C1CCCCN21 (configuration not stated) (10 µM) | -0.204 | 0.0209
15 | CCc1nc(CSc2nc(C)c(C(=O)Nc3ccccc3)cc2C#N)cs1 (1 µM) | -0.109 | -0.101
16 | Cc1nc2ccc(C(=O)N(C)Cc3ccccc3OC(F)(F)F)cc2nc1C (10 µM) | 0.0452 | 0.14
17 | O=C(Nc1ccc(Cl)cc1)Nc1nc(-c2cccc3ccccc23)cs1 (10 µM) | 0.0594 | 0.14
18 | COc1cccc(N2CCN(C(=O)c3cccnc3N3CCCC3)CC2)c1 (1 µM) | -0.0245 | -0.0242
19 | Cc1ccc(C(Nc2ncnc3sccc23)c2cccs2)cc1 (configuration not stated) (10 µM) | -0.116 | 0.00744
20 | Cc1c(CCCl)c(Cl)n2c(nc3ccccc32)c1C#N (10 µM) | 0.0937 | 0.0428
21 | COc1ccc(/C=C(\C(=O)c2cccs2)N2C=CC=CC2=C(C#N)C#N)cc1OC (1 µM) | 0.0267 | 0.00328

Random excerpt: two compounds from above, in no set order.
Row | Structure (SMILES) | XPO1 fluorescence intensity change (log2) [1] | BRD4 median nuclear fluorescence intensity change (log2) [2]
4 | CC(Sc1ncnc2sccc12)C(=O)NC(=O)NCc1ccccc1 (configuration not stated) (10 µM) | -0.308 | -0.121
2 | Oc1c(C(Nc2cccc(Cl)c2)c2ccccn2)ccc2cccnc12 (configuration not stated) (10 µM) | 0.095 | 0.0913

(further entries)

Row | Structure (SMILES) | XPO1 fluorescence intensity change (log2) [1] | BRD4 median nuclear fluorescence intensity change (log2) [2]
22 | COc1ccc(C)cc1NC(=O)c1ccc(-n2ccnc2)nc1 (10 µM) | -0.0151 | 0.068
23 | O=C(Nc1ccc(Oc2cccc(F)c2)cc1)N1CCc2ccccc2C1 (10 µM) | -0.0139 | 0.00187
24 | FC(F)Oc1ccccc1-c1noc(CCl)n1 (10 µM) | -0.296 | 0.0447
25 | O=C1CN(C(=O)Cc2ccc(Br)cc2)c2ccccc2N1 (10 µM) | -0.08 | 0.166
26 | O=C(/C=C/c1cn(Cc2ccccc2)nc1-c1cccnc1)c1ccc(O)c(CCCl)c1 (10 µM) | -0.0359 | 0.0378
27 | CCCCn1c(=O)[nH]c(=O)c2c1nc(CCl)n2CCC(C)C (10 µM) | 0.00468 | 0.12
28 | Cc1cc(N(C)Cc2ccccc2Br)nc(N)n1 (10 µM) | 0.138 | 0.17
29 | CC(C)(C#N)c1ccc(NC(=O)Cn2cc(Br)c(=O)[nH]c2=O)cc1 (10 µM) | 0.143 | 0.0308
30 | Cc1cc(C)c(-c2csc(NC(=O)c3ccccn3)n2)c(C)c1 (10 µM) | -0.0188 | 0.0214
31 | CCc1cc2oc(=O)cc(CCl)c2cc1Cl (10 µM) | -0.00209 | 0.0276
32 | Cc1cc(NC(=O)c2ccc(CCl)cc2)ccc1S(=O)(=O)Nc1ccc(Br)cc1 (10 µM) | 0.0877 | 0.0436
33 | Cc1ccc(NC(=O)C2CC(=O)N(c3cccc(Cl)c3)C2)nc1 (configuration not stated) (10 µM) | 0.196 | 0.00716
34 | Cc1ccccc1C(=O)Nc1nc2c(s1)CN(C(=O)OC(C)(C)C)CC2 (10 µM) | 0.183 | 0.077
35 | COCc1c(C(=O)Nc2ncnn2C)sc2ccccc12 (10 µM) | 0.0879 | -0.0332
36 | COc1ccccc1-c1cc(C(=O)Nc2c3c(nn2C)CCC3)no1 (10 µM) | -0.0354 | -0.0113
37 | CCOC(=O)N1CCN(C(=O)c2cc(-c3ccncc3)nc3ccccc23)CC1 (10 µM) | 0.0765 | 0.118
38 | COc1cc(OC)cc(C(=O)N2CCN(c3cccc(C)c3C)CC2)c1 (10 µM) | 0.0135 | 0.157
39 | Cc1cn([C@H]2C[C@H](O)[C@@H](CO)O2)c(=O)[nH]c1=O [thymidine] (10 µM) | 0.0988 | -0.00943
40 | O=c1[nH]c(=O)n([C@H]2C[C@H](O)[C@@H](CO)O2)cc1F [floxuridine] (10 µM) | 0.0681 | 0.132
41 | COc1ccccc1Nc1nc(-c2ccc(S(C)(=O)=O)cc2)cs1 (10 µM) | -0.38 | 0.174
